Measured values taken from the supplement of paper PMC4604168 (melanoma cell lines).
This is one part of the list. Many values rest on one well or one pass, so single values are uncertain.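 The apoptosis fraction was the count of cleaved-PARP antibody-stained nuclei relative to all DNA-stained nuclei, imaged in 1,536-well plates. Screening doses were set so most cells survived, and baseline and induced cleaved-PARP levels vary greatly across cell lines.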

Columns and labels:
Test in all cases: cleaved PARP positive nuclei fraction relative to DMSO control; melanoma cells; higher = more apoptosis
Details in all cases: library dose: low library concentration; 72 h
WM115 = system: WM115
WM1716 = system: WM1716
WM1745 = system: WM1745
WM3526 = system: WM3526
WM3619 = system: WM3619
WM451Lu = system: WM451Lu

Compound | cleaved PARP positive nuclei fraction (WM115) [%] | cleaved PARP positive nuclei fraction (WM1716) [%] | cleaved PARP positive nuclei fraction (WM1745) [%] | cleaved PARP positive nuclei fraction (WM3526) [%] | cleaved PARP positive nuclei fraction (WM3619) [%] | cleaved PARP positive nuclei fraction (WM451Lu) [%]
CS(=O)(=O)c1ccc(C(=O)Nc2ccc(Cl)c(-c3ccccn3)c2)c(Cl)c1 [vismodegib] + C[As](C)SC[C@H](NC(=O)CC[C@H](N)C(=O)O)C(=O)NCC(=O)O [Darinaparsin] (first compound 1 µM, partner dose 0.4 µM) | 23.4 | 30.2 | 78.1 | 32.9 | 84.1 | 61.3
Cc1ccc(Nc2nccc(N(C)c3ccc4c(C)n(C)nc4c3)n2)cc1S(N)(=O)=O [Pazopanib] + Cc1cc(SCc2sc(-c3ccc(C(F)(F)F)c(F)c3)nc2C)ccc1OCC(=O)O [GW0742] (first compound 0.4 µM, partner dose 2 µM) | 148 | 55.6 | 99.2 | 87 | 109 | 72.7
C[C@]12O[C@H](C[C@]1(O)CO)n1c3ccccc3c3c4c(c5c6ccccc6n2c5c31)CNC4=O [Lestaurtinib] + Cc1ccc(NC(=O)c2cccc(N(C)C)c2)cc1NC(=O)c1ccc(O)cc1 [ZM336372] (first compound 0.004 µM, partner dose 2 µM) | 122 | 92 | 90.7 | 85.9 | 96.4 | 125
OCCn1cc(-c2cnc3nnn(Cc4ccc5ncccc5c4)c3n2)cn1 + Cc1cc(SCc2sc(-c3ccc(C(F)(F)F)c(F)c3)nc2C)ccc1OCC(=O)O [GW0742] (first compound 1 µM, partner dose 2 µM) | 29.4 | 74.7 | 93.5 | 113 | 87.2 | 76.9
C[C@]12O[C@H](C[C@]1(O)CO)n1c3ccccc3c3c4c(c5c6ccccc6n2c5c31)CNC4=O [Lestaurtinib] + Nc1cccc2c1CN(C1CCC(=O)NC1=O)C2=O [lenalidomide] (first compound 0.004 µM, partner dose 1 µM) | 103 | 34.5 | 90.6 | 88.1 | 88.5 | 43.6
C[C@@H](Oc1cc(-c2cnn(C3CCNCC3)c2)cnc1N)c1c(Cl)ccc(F)c1Cl [Crizotinib] + Cc1cc(SCc2sc(-c3ccc(C(F)(F)F)c(F)c3)nc2C)ccc1OCC(=O)O [GW0742] (first compound 0.2 µM, partner dose 2 µM) | 357 | 105 | 81.5 | 67 | 92.6 | 58.6
Cn1cc(C2=C(c3cn(C4CCN(Cc5ccccn5)CC4)c4ccccc34)C(=O)NC2=O)c2ccccc21 [Enzastaurin] + O=S(=O)(c1ccccc1)N(CC(F)(F)F)c1ccc(C(O)(C(F)(F)F)C(F)(F)F)cc1 [T0901317] (first compound 0.8 µM, partner dose 1.4 µM) | 188 | 327 | 103 | 141 | 104 | 70.5
C[C@]12O[C@H](C[C@]1(O)CO)n1c3ccccc3c3c4c(c5c6ccccc6n2c5c31)CNC4=O [Lestaurtinib] + N#Cc1c(O)c2c(-c3ccc(-c4ccccc4O)cc3)csc2[nH]c1=O [A769662] (first compound 0.004 µM, partner dose 2 µM) | 97.8 | 52.2 | 104 | 86.8 | 105 | 54.6
CCN(CC)CCNC(=O)c1c(C)[nH]c(/C=C2\C(=O)Nc3ccc(F)cc32)c1C [sunitinib] + Cc1cc(SCc2sc(-c3ccc(C(F)(F)F)c(F)c3)nc2C)ccc1OCC(=O)O [GW0742] (first compound 0.4 µM, partner dose 2 µM) | 39.4 | 59.6 | 92.7 | 90.6 | 73.9 | 73.2
N.N.[Cl][Pt][Cl] [cisplatin] + Cc1ccc(NC(=O)c2cccc(N(C)C)c2)cc1NC(=O)c1ccc(O)cc1 [ZM336372] (first compound 1.6 µM, partner dose 2 µM) | 109 | 102 | 116 | 57.9 | 124 | 57.3
N.N.[Cl][Pt][Cl] [cisplatin] + CCCS(=O)(=O)Nc1ccc(F)c(C(=O)c2c[nH]c3ncc(Cl)cc23)c1F [PLX4720] (first compound 1.6 µM, partner dose 0.08 µM) | 55.3 | 31.4 | 88.4 | 99 | 286 | 161
N.N.[Cl][Pt][Cl] [cisplatin] + CN(NC(=O)CC(=O)NN(C)C(=S)c1ccccc1)C(=S)c1ccccc1 [STA4783] (first compound 1.6 µM, partner dose 0.006 µM) | 108 | 33.8 | 78.5 | 68 | 112 | 99.8

Reformatted as labelled records: entries from further up.
C[C@@H](Oc1cc(-c2cnn(C3CCNCC3)c2)cnc1N)c1c(Cl)ccc(F)c1Cl [Crizotinib] + Cc1cc(SCc2sc(-c3ccc(C(F)(F)F)c(F)c3)nc2C)ccc1OCC(=O)O [GW0742] (first compound 0.2 µM, partner dose 2 µM)
  cleaved PARP positive nuclei fraction (WM115) [%]: 357
  cleaved PARP positive nuclei fraction (WM1716) [%]: 105
  cleaved PARP positive nuclei fraction (WM1745) [%]: 81.5
  cleaved PARP positive nuclei fraction (WM3526) [%]: 67
  cleaved PARP positive nuclei fraction (WM3619) [%]: 92.6
  cleaved PARP positive nuclei fraction (WM451Lu) [%]: 58.6
N.N.[Cl][Pt][Cl] [cisplatin] + CN(NC(=O)CC(=O)NN(C)C(=S)c1ccccc1)C(=S)c1ccccc1 [STA4783] (first compound 1.6 µM, partner dose 0.006 µM)
  cleaved PARP positive nuclei fraction (WM115) [%]: 108
  cleaved PARP positive nuclei fraction (WM1716) [%]: 33.8
  cleaved PARP positive nuclei fraction (WM1745) [%]: 78.5
  cleaved PARP positive nuclei fraction (WM3526) [%]: 68
  cleaved PARP positive nuclei fraction (WM3619) [%]: 112
  cleaved PARP positive nuclei fraction (WM451Lu) [%]: 99.8
